Laboratory results reported in the supplement of paper PMC5949888.
Most values lie at the floor of the assay. Slopes are relative: functional sequences can read slightly below zero.

The substances below were run on Saccharomyces cerevisiae PS128 hsf1 delta, HSF1(1-493) fusion (assay: growth estimate (transactivation domain function in HSF1 fusion, heat-shock survival) (a.u. (slope of normalised read count over time)); higher = stronger growth at 37°C, i.e. more transactivation activity). Settings: library: random library.
Procedure: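 Random 60-nt DNA library encoding peptides of up to 20 aa, fused to the C-terminus of yeast HSF1 residues 1-493 (C-terminal TAD deleted) and expressed from the native HSF1 promoter on a CEN plasmid in hsf1-deleted S. cerevisiae PS128. Cells were selected at 37°C on -trp 5-FOA plates for 0, 2, 4, 6 and 8 days and amplicons were sequenced. Growth estimate is the slope of a robust linear fit of total-sum-normalised read counts (normalised to the first time point) over time, using at least 2 replicates. Sequences are classed functional (TAD activity) above a threshold of -0.13, set from stop-codon control sequences.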

Substance	growth estimate
GLVKSAGDHLDIMFAG	< -0.25
GLVMICACSTHACAIIINSA	< -0.25
GLVRGSRGRVIVKTFEETGS	< -0.25
GLVRIG	< -0.25
GLW	< -0.25
GLYDVYIHR	< -0.25
GLYPTGENETQCQTRSSYFV	< -0.25
GLYSFDCWRRHAQTPSSCSR	< -0.25
GMASPS	-0.236
GMC	< -0.25
GMCPRIGFR	< -0.25
GMCWDCGTGLSASDRFSKRR	< -0.25
GMFI	< -0.25
GMGFSLRPTLRGQPPGSPMG	< -0.25
GMGFVPLIQ	< -0.25
GMGILVSGSEVPKPFLNGTP	< -0.25
GMHPCSVFACSMLYSPPGME	< -0.25
GMITVPSTDNGDPDGGGRYT	< -0.25
GMLELQKPLHITSVRLKVH	< -0.25
GMMVQPQQ	< -0.25
GMQGLLLQLMPVAMGHRPYN	< -0.25
GMR	< -0.25
GMRCGTREAKGKT	< -0.25
GMRCVDFTGLHPGDRVFHSY	< -0.25

Substance	growth estimate
GMRGERIGATLSGQI	< -0.25
GMTQ	< -0.25
GMVLGRDRKLLVIWSYRFGP	< -0.25
GNAGLYNKREYHARMLIPAA	< -0.25
GNCDAHQA	< -0.25
GNFESLAVSDRSRVVPPSRP	< -0.25
GNGKVSS	< -0.25
GNGLRSDCRQSLNKQGTTAA	< -0.25
GNGS	< -0.25
GNHKTNTKGSLSHYVMAE	< -0.25
GNIMRVTAYG	< -0.25
GNIQRYWLNLKVIMSWLVR	< -0.25
GNIWFEEQL	< -0.25
GNL	< -0.25
GNLKFELAASEQKGVLASQK	< -0.25
GNLKGSLSSKLDHPEGMMGR	< -0.25
GNLNAMLKAYLAPSPNNTDP	< -0.25
GNLNHVRQHMRYLVGIFPSA	< -0.25
GNLSCTWRGSLASM	< -0.25
GNLYKQTVLSYYLCIGLIHP	< -0.25
GNNCVMQLDSFVILSARLCS	< -0.25
GNQ	< -0.25
GNQAGVDPRYMVFSWYERCF	< -0.25
GNQQVNAPHDKDTHEWHRRR	< -0.25

Four consecutive entries from above, quoted:
Substance	growth estimate
GNGLRSDCRQSLNKQGTTAA	< -0.25
GNGS	< -0.25
GNHKTNTKGSLSHYVMAE	< -0.25
GNIMRVTAYG	< -0.25

Remaining list, next part

Substance	growth estimate
GNRIRTLFRYERAVLAFVPQ	< -0.25
GNRLSIAAFEFGFVGA	< -0.25
GNS	< -0.25
GNSGKLGVWGVVYQPSTLFT	< -0.25
GNSHRMGSLESEL	< -0.25
GNSILNIAADYGQITRSMLT	< -0.25
GNSNWIATVRAIR	< -0.25
GNYNARNGRAVRTF	< -0.25
GPAASRTDNSGVFGKRAVRL	< -0.25
GPACKFNRFLQIALVACPPA	< -0.25
GPAFYLGRKSPPRLVGVPAP	-0.245
GPAPVSGLITEAWSVLTVGS	< -0.25
GPARSPKPPFPPASRRVNVL	< -0.25
GPCFGQRYIGCGTF	< -0.25
GPCWVLRFGVGRR	< -0.25
GPDIRKGIGEIPSPGASPAP	< -0.25
GPENSRGWVPCNRS	< -0.25
GPEWYVTGDVQRCRWRTLSY	< -0.25
GPFA	< -0.25
GPGDANAFSLAVWWSMEDGP	0.182
GPGDSAPFASLALVFSSA	< -0.25
GPGHSDWSGLEAPGHMSWTP	< -0.25
GPGLALVPGIGPGLGSVVQN	< -0.25
GPGNQVGGIDRTLCTTVGLL	< -0.25

Substance	growth estimate
GPGRP	< -0.25
GPGSRHTIKWVRVNFDMRHQ	< -0.25
GPGT	< -0.25
GPKAIAMEQRRDGSKTEWCA	< -0.25
GPKPRMLREPYRSGRLTLPS	0.0112
GPKSLSSLVFGWPSVPT	< -0.25
GPLAVRLKRQPPA	< -0.25
GPLPGRAMASGPH	< -0.25
GPNDQISRTRGASGIMFLPV	< -0.25
GPNLRKSLMGHRRMPFPIIG	< -0.25
GPNRHLKPRMVFHNSGIGEI	< -0.25
GPPCGT	< -0.25
GPPQRTARCVSRKDSAETWG	< -0.25
GPPQRVIQRLPLSIATDERY	< -0.25
GPPTEWIGCI	< -0.25
GPPVQKEGQEDRG	< -0.25
GPQVTSPWFQPRWLDFTKGF	-0.246
GPRALVENLMGQLERLREIL	< -0.25
GPRCGLGQIREIE	< -0.25
GPRCMRSASLPYGVWTES	< -0.25
GPRLPRSYK	< -0.25
GPRLRTKSRVL	< -0.25
GPRPGPRWILGTIVIV	< -0.25
